Source: PMC6834639
Results are given in words; binding and its absence hold for the method and conditions named. Some binding calls cover weakened binding; strength is not graded here.

T1: dD Aβ (1–10)
T1 chain: DAEFRHDSGY

T2: dS Aβ (1–10)
T2 chain: DAEFRHDSGY


What was measured:
dD Aβ (1–10) = target: T1, dD Aβ (1–10); assay: native MS; IM-MS of oligomers of one Aβ fragment alone; Aβ (1–10) and Aβ (1–16) 600 µM, 10 mM NH4OAc; oligomers of many sizes seen, a printed size is the largest one; both purified; conditions: remark: other sources report otherwise
dS Aβ (1–10) = target: T2, dS Aβ (1–10); assay: as above; conditions: remark: other sources report otherwise

binding (dD Aβ (1–10)) | binding (dS Aβ (1–10)) | Binder
binds | – | DAEFRHDSGY (here or on the partner: D-aspartic acid at the underlined Asp residues (D1 and D7 by the letters); D-aspartic acid at the underlined Asp residues (D1 and D7 by the letters)) [dD Aβ (1–10)]
– | binds | DAEFRHDSGY (here or on the partner: D-serine at the underlined Ser (S8 by the letters); D-serine at the underlined Ser (S8 by the letters)) [dS Aβ (1–10)]
